Data as given in PubChem BioAssay AID602196 (INSERM, 2012)

Aim: 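Knock-downs that protect lung cancer cells from cisplatin or sensitise them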
System: human A549 lung cancer cells
Reagents: siRNA pair against human genes
Duration: 48 h transfection before cisplatin; time from cisplatin to read-out not stated
Challenge: cisplatin at a dose killing half of control-siRNA cells; exact dose and duration not given
Measured: 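Shift in cisplatin death relative to control siRNA, from -50 (all cells die) to +50 (no cells die); siRNAs harmful on their own scored 0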
Direction: two-siRNA summed score (-2 to +2): higher = both siRNAs protect from cisplatin killing; -2 means both sensitise; mean protection from cisplatin (shift in death) and protection from cisplatin (shift in death), siRNA C and protection from cisplatin (shift in death), siRNA D: higher = protection from cisplatin killing
Hit rule: 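siRNAs harmful alone (LDH or WST-1) get 0; others get +1 for less and -1 for more cisplatin killing; genes are active when the two siRNAs give the same sign, summing to ±2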
Meaning of the calls: active = both siRNAs shift cisplatin killing the same way; inactive = no consistent shift, or siRNA harmful alone
This is a random part of about 23,000 deposited reagents. 455 of them (2%) count as active. 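Active includes both protection and sensitisation; some change values fall well beyond the stated -50 to +50 range.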 No sequences are given here. Not stated in the record: the amount of reagent.

| gene symbol | two-siRNA summed score (-2 to +2) | mean protection from cisplatin (shift in death) (%) | protection from cisplatin (shift in death), siRNA C (%) | protection from cisplatin (shift in death), siRNA D (%) | Outcome |
| --- | --- | --- | --- | --- | --- |
| ACSM6 | 0 | 0.8 | 12 | -10.4 | inactive |
| FBXO22 | 0 | -23.2 | -21.1 | -25.3 | inactive |
| RSPH14 | 0 | -13.9 | -12 | -15.9 | inactive |
| LOC441760 | 0 | 13.5 | 0.5 | 26.5 | inactive |
| FLACC1 | 0 | -6.1 | 4 | -16.2 | inactive |
| RAB31 | 0 | 3.5 | 15.9 | -8.9 | inactive |
| CCDC158 | 0 | 0.9 | 3 | -1.2 | inactive |
| ARHGEF39 | 0 | 4.5 | -0.4 | 9.4 | inactive |
| DDB2 | 0 | 7.7 | 5.4 | 9.9 | inactive |
| LOC441830 | 0 | 4.9 | 12.1 | -2.3 | inactive |
| LOC440735 | 0 | 2.3 | 7.3 | -2.7 | inactive |
| XAGE3 | 0 | 0.7 | -0.2 | 1.6 | inactive |
| LOC196996 | 0 | 2 | -4.6 | 8.5 | inactive |
| SKIC8 | 0 | -4.6 | -0.5 | -8.8 | inactive |
| VPS72 | 0 | 6.7 | 7.5 | 5.9 | inactive |
| LOC441364 | 0 | 9.6 | 8.8 | 10.4 | inactive |
| GPX3 | 0 | 1.1 | 1.1 | 1 | inactive |
| OR52K1 | 0 | 4.2 | 15.7 | -7.4 | inactive |
| WSCD2 | 0 | 15.9 | 11 | 20.8 | inactive |
| LOC442230 | 0 | 8.2 | 15.2 | 1.3 | inactive |
| LOC400479 | 0 | 2 | -0.1 | 4 | inactive |
| LOC441179 | 1 | 13.7 | 1.9 | 25.4 | inactive |
| HEATR6 | 1 | 4.8 | 19 | -9.4 | inactive |
| PTPN11 | 0 | -0.7 | -0.9 | -0.5 | inactive |
| LINC03019 | 1 | 5.2 | 9.1 | 1.3 | inactive |
| TRPT1 | 0 | -2.7 | -7.3 | 1.9 | inactive |
| GUCY2C | 0 | -11.8 | -24.7 | 1.2 | inactive |
| MTERF4 | 0 | 3.5 | 5.3 | 1.7 | inactive |
| LOC440985 | 0 | 8.6 | 10.3 | 6.8 | inactive |
| RECK | 0 | 8 | 7.8 | 8.2 | inactive |
| LOC389665 | 0 | -4.9 | -10.4 | 0.6 | inactive |
| PJA1 | 0 | -1.2 | 2.5 | -4.8 | inactive |
| FECH | 0 | -3 | 10.4 | -16.3 | inactive |
| MTMR10 | 0 | 1.4 | -2.9 | 5.6 | inactive |
| AKAP17A | 0 | 3.6 | -2.3 | 9.5 | inactive |
| LOC338829 | 0 | 3.8 | -4.5 | 12.2 | inactive |
| ADAM19 | -1 | -4 | -17.6 | 9.6 | inactive |
| POLR3D | 0 | -0.4 | 5.5 | -6.2 | inactive |
| LOC377064 | 1 | 13.3 | 0.4 | 26.1 | inactive |
| PLEKHA6 | 1 | 9.4 | 9 | 9.9 | inactive |
| LOC392528 | 0 | 11.8 | 20.1 | 3.4 | inactive |
| SPATA31D1 | 0 | 8.2 | 11.4 | 5 | inactive |
| ZNF135 | 0 | -2.9 | -12.5 | 6.7 | inactive |
| LOC442073 | 0 | 13.6 | 4.5 | 22.7 | inactive |
| MORN4 | 0 | 7.4 | -1.1 | 16 | inactive |
| TAF1B | -1 | 0.1 | 10 | -9.8 | inactive |
| OPHN1 | 0 | 5.5 | 5.2 | 5.9 | inactive |
| POLR3K | 0 | 1 | -2.6 | 4.7 | inactive |
| ST8SIA4 | 0 | -1.5 | -4.3 | 1.3 | inactive |
| TAPBPL | -1 | -12.4 | -21.9 | -3 | inactive |
| RASSF1 | -1 | 7.9 | -16.1 | 31.9 | inactive |
| VAMP4 | -1 | -6.3 | 12.7 | -25.3 | inactive |
| TRPC3 | 0 | 16.6 | 3.9 | 29.2 | inactive |
| MTUS1 | 0 | 2.9 | 15.6 | -9.7 | inactive |
| SLC9C1 | 0 | 10.5 | 11.1 | 10 | inactive |
| GMCL1 | 0 | -1.5 | -1.1 | -2 | inactive |
| PRR5L | 0 | -3.4 | 2.2 | -9.1 | inactive |

Taken from above.
RAB31, protection from cisplatin (shift in death), siRNA C (%): 15.9
ARHGEF39, two-siRNA summed score (-2 to +2) → 0
For “mean protection from cisplatin (shift in death) (%)”, ADAM19 has -4
For “Outcome”, PRR5L reads inactive
Entry for WSCD2 under “protection from cisplatin (shift in death), siRNA D (%)”: 20.8
LOC441364, protection from cisplatin (shift in death), siRNA C (%): 8.8
